Results reported in patent US20260226036A1, “THIOUREA ANTIOXCOMPOUNDS WITH NEUROPROTECTIVE ACTIVITY” (priority 2023, published 2026).
At least one compound was matched to its structure with a doubt left.

Experiments:
Type in all cases: cell-based, human
IL-1β cytokine = IL-1β cytokine ELISA of SHSY-5Y supernatants; conditions: cocaine 1.5 mM or METH 3.5 mM alone; 24 h
Description: Supernatants were collected and the IL-1β cytokine concentration was assessed using ELISA kit and following manufacturer instruction (RayBiotech). […] N=3, p<0.05; p<0.01, One-way ANOVA, GraphPad Prism.

[1] = system: glutathione peroxidase (GPx); experiment: Glutathione peroxidase ELISA in SH-SY5Y cells; conditions: cocaine 1.5 mM alone; 24 hours
SH-SY5Y neural cells = experiment: Total antioxidant concentration in SH-SY5Y cells; conditions: cocaine treatment alone

Compound: COC(=O)[C@H]1[C@@H](OC(=O)c2ccccc2)C[C@@H]2CC[C@H]1N2C [cocaine]
- IL-1β (IL-1β cytokine): significantly increased
- GPx activity [1]: decreased activity
- total antioxidant concentration (SH-SY5Y neural cells): significantly increased
